According to US20130338178A1, “SIRTUIN MODULATORS AS INHIBITORS OF CYTOMEGALOVIRUS” (THE TRUSTEES OF PRINCETON UNIVERSITY, priority 2011, published 2013):
Some results were stated once for a whole list of compounds, not compound by compound.

Test system: HCMV
Assay: Yield of infectious HCMV from drug-treated infected MRC5 fibroblasts
Assay type: cell-based, human cytomegalovirus
Settings: 100 μM; 96 h after infection; limit of detection

Q: `Oc1ccc(C=Cc2cc(O)cc(O)c2)cc1` [Resveratrol] was tested. Which virus yield did it give?
A: Its virus yield is < 10^2 IU/ml.
